{
  "source": "the supplement of paper PMC8728848",
  "assay_in_all_cases": "glycan array binding signal (z-score within array); higher = stronger binding",
  "conditions_in_all_cases": "glycan notation: IUPAC condensed, linker removed",
  "key": {"GalNAc(b1-4)GlcNAc": {"target": "GalNAc(b1-4)GlcNAc", "outline": "(§1)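 Glycan array data came from 3228 arrays in the Consortium for Functional Glycomics database, and only arrays with an available protein sequence were kept. Glycan names were put into IUPAC-condensed notation, and columns mapping to the same glycan were averaged. The binding signal is a within-array Z-score, averaged across arrays of one protein sequence run at different concentrations or buffers and across linkers. A negative Z-score can be read as non-binding.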"}, "[1]": {"target": "GalNAc(b1-4)GlcNAc(b1-2)Man", "outline": "as §1"}, "[2]": {"target": "GalNAc(b1-4)GlcNAc(b1-2)Man(a1-3)[GalNAc(b1-4)GlcNAc(b1-2)Man(a1-6)]Man(b1-4)GlcNAc(b1-4)GlcNAc", "outline": "as §1"}, "[3]": {"target": "GalNAc(b1-4)GlcNAc(b1-3)GalNAc(b1-4)GlcNAc", "outline": "as §1"}, "GalNAc(b1-4)GlcNAc6S": {"target": "GalNAc(b1-4)GlcNAc6S", "outline": "as §1"}, "GalNAc(b1-6)GalNAc": {"target": "GalNAc(b1-6)GalNAc", "outline": "as §1"}, "GalNAc3S(b1-4)GlcNAc": {"target": "GalNAc3S(b1-4)GlcNAc", "outline": "as §1"}, "GalNAc3S(b1-4)GlcNAc3S": {"target": "GalNAc3S(b1-4)GlcNAc3S", "outline": "as §1"}, "[4]": {"target": "GalNAc3S(b1-4)[Fuc(a1-3)]GlcNAc", "outline": "as §1"}, "GalNAc4S6S(b1-4)GlcNAc": {"target": "GalNAc4S6S(b1-4)GlcNAc", "outline": "as §1"}, "GalNAc6S(b1-4)GlcNAc": {"target": "GalNAc6S(b1-4)GlcNAc", "outline": "as §1"}, "Glc(a1-4)Glc": {"target": "Glc(a1-4)Glc", "outline": "as §1"}, "[5]": {"target": "Glc(a1-4)Glc(a1-4)Glc(a1-4)Glc", "outline": "as §1"}, "Glc(a1-6)Glc(a1-6)Glc": {"target": "Glc(a1-6)Glc(a1-6)Glc", "outline": "as §1"}, "[6]": {"target": "Glc(a1-6)Glc(a1-6)Glc(a1-6)Glc", "outline": "as §1"}, "Glc(b1-4)Glc": {"target": "Glc(b1-4)Glc", "outline": "as §1"}, "Glc(b1-6)Glc": {"target": "Glc(b1-6)Glc", "outline": "as §1"}, "GlcA(b1-3)Gal": {"target": "GlcA(b1-3)Gal", "outline": "as §1"}, "GlcA(b1-3)GlcNAc": {"target": "GlcA(b1-3)GlcNAc", "outline": "as §1"}, "GlcA(b1-6)Gal": {"target": "GlcA(b1-6)Gal", "outline": "as §1"}, "[7]": {"target": "GlcA3S(b1-3)Gal(b1-4)GlcNAc(b1-2)Man", "outline": "as §1"}, "[8]": {"target": "GlcA3S(b1-3)Gal(b1-4)GlcNAc(b1-3)Gal(b1-4)Glc", "outline": "as §1"}, "[9]": {"target": "GlcNAc(a1-3)Gal(b1-4)GlcNAc", "outline": "as §1"}, "[10]": {"target": "GlcNAc(a1-4)Gal(b1-3)GlcNAc", "outline": "as §1"}, "[11]": {"target": "GlcNAc(a1-4)Gal(b1-4)GalNAc", "outline": "as §1"}, "[12]": {"target": "GlcNAc(a1-4)Gal(b1-4)GlcNAc", "outline": "as §1"}, "[13]": {"target": "GlcNAc(a1-4)Gal(b1-4)GlcNAc(b1-3)Gal(b1-4)Glc", "outline": "as §1"}, "[14]": {"target": "GlcNAc(a1-4)Gal(b1-4)GlcNAc(b1-3)Gal(b1-4)GlcNAc", "outline": "as §1"}, "[15]": {"target": "GlcNAc(a1-4)Gal(b1-4)GlcNAc(b1-3)Gal(b1-4)GlcNAc(b1-3)Gal(b1-4)GlcNAc", "outline": "as §1"}, "[16]": {"target": "GlcNAc(a1-4)Gal(b1-4)GlcNAc(b1-3)Gal(b1-4)[Fuc(a1-3)]GlcNAc(b1-3)Gal(b1-4)[Fuc(a1-3)]GlcNAc", "outline": "as §1"}, "[17]": {"target": "GlcNAc(a1-6)Gal(b1-4)GlcNAc", "outline": "as §1"}, "[18]": {"target": "GlcNAc(b1-2)Gal(b1-3)GalNAc", "outline": "as §1"}, "[19]": {"target": "GlcNAc(b1-2)Man(a1-3)[GlcNAc(b1-2)Man(a1-6)]Man(b1-4)GlcNAc(b1-4)GlcNAc", "outline": "as §1"}, "[20]": {"target": "GlcNAc(b1-2)Man(a1-3)[GlcNAc(b1-2)Man(a1-6)]Man(b1-4)GlcNAc(b1-4)[Fuc(a1-6)]GlcNAc", "outline": "as §1"}, "[21]": {"target": "GlcNAc(b1-2)Man(a1-3)[GlcNAc(b1-4)][GlcNAc(b1-2)Man(a1-6)]Man(b1-4)GlcNAc(b1-4)GlcNAc", "outline": "as §1"}, "[22]": {"target": "GlcNAc(b1-2)Man(a1-3)[GlcNAc(b1-4)][GlcNAc(b1-2)Man(a1-6)]Man(b1-4)GlcNAc(b1-4)[Fuc(a1-6)]GlcNAc", "outline": "as §1"}, "[23]": {"target": "GlcNAc(b1-2)[GlcNAc(b1-4)]Man(a1-3)[GlcNAc(b1-2)Man(a1-6)]Man(b1-4)GlcNAc(b1-4)GlcNAc", "outline": "as §1"}},
  "note": "The other results are listed elsewhere or left out.",
  "data": [
    {"binder": "AT5G24760(45) (Arabidopsis thaliana), Q8LEB2 (protein) MSASSSSFEQPQVITCNAAVAWRAGEPLVMEEVEVSPPQPLEIRIKVVCTSLCRSDLSAWESQSLLPRIFGHEAAGIVESIGEGVTEFEKGDHVLAVFTGECGSCRHCISGKSNMCQVLGMERKGLMHSDQKTRFSIKGKPVYHYCAVSSFSEYTVVHSGCAVKVDPLAPLHKICLLSCGVAAGLGAAWNVADVQKGSSVVIFGLGTVGLSVAQGAKLRGAAQILGVDINPAKAEQAKTFGVTDFINSNDLSEPIPQVIKRMTGGGADFSFECVGDTGIATTALQSCSDGWGMTVTLGVPKAKPEVSAHYGLFLSGKSLKGTLFGGWKPKSDLPSLIDKYMNKEIMIDEFITHNLSFDEINKAFVLMREGKCLRCVLHMPK", "values": [
      {"measurement": "glycan array binding signal (z-score)", "setting": "GalNAc(b1-4)GlcNAc", "result": 3.23},
      {"measurement": "glycan array binding signal (z-score)", "setting": "[1]", "result": 0.123},
      {"measurement": "glycan array binding signal (z-score)", "setting": "[2]", "result": -0.34},
      {"measurement": "glycan array binding signal (z-score)", "setting": "[3]", "result": 0.752},
      {"measurement": "glycan array binding signal (z-score)", "setting": "GalNAc(b1-4)GlcNAc6S", "result": 1.24},
      {"measurement": "glycan array binding signal (z-score)", "setting": "GalNAc(b1-6)GalNAc", "result": 0.667},
      {"measurement": "glycan array binding signal (z-score)", "setting": "GalNAc3S(b1-4)GlcNAc", "result": 1.1},
      {"measurement": "glycan array binding signal (z-score)", "setting": "GalNAc3S(b1-4)GlcNAc3S", "result": -0.504},
      {"measurement": "glycan array binding signal (z-score)", "setting": "[4]", "result": 0.319},
      {"measurement": "glycan array binding signal (z-score)", "setting": "GalNAc4S6S(b1-4)GlcNAc", "result": 0.19},
      {"measurement": "glycan array binding signal (z-score)", "setting": "GalNAc6S(b1-4)GlcNAc", "result": -0.477},
      {"measurement": "glycan array binding signal (z-score)", "setting": "Glc(a1-4)Glc", "result": 0.644},
      {"measurement": "glycan array binding signal (z-score)", "setting": "[5]", "result": -0.914},
      {"measurement": "glycan array binding signal (z-score)", "setting": "Glc(a1-6)Glc(a1-6)Glc", "result": -0.404},
      {"measurement": "glycan array binding signal (z-score)", "setting": "[6]", "result": 0.911},
      {"measurement": "glycan array binding signal (z-score)", "setting": "Glc(b1-4)Glc", "result": -0.46},
      {"measurement": "glycan array binding signal (z-score)", "setting": "Glc(b1-6)Glc", "result": 0.04},
      {"measurement": "glycan array binding signal (z-score)", "setting": "GlcA(b1-3)Gal", "result": -0.534},
      {"measurement": "glycan array binding signal (z-score)", "setting": "GlcA(b1-3)GlcNAc", "result": -0.811},
      {"measurement": "glycan array binding signal (z-score)", "setting": "GlcA(b1-6)Gal", "result": 0.546},
      {"measurement": "glycan array binding signal (z-score)", "setting": "[7]", "result": -0.653},
      {"measurement": "glycan array binding signal (z-score)", "setting": "[8]", "result": 0.151},
      {"measurement": "glycan array binding signal (z-score)", "setting": "[9]", "result": 0.792},
      {"measurement": "glycan array binding signal (z-score)", "setting": "[10]", "result": -0.339},
      {"measurement": "glycan array binding signal (z-score)", "setting": "[11]", "result": -0.535},
      {"measurement": "glycan array binding signal (z-score)", "setting": "[12]", "result": -0.377},
      {"measurement": "glycan array binding signal (z-score)", "setting": "[13]", "result": -0.266},
      {"measurement": "glycan array binding signal (z-score)", "setting": "[14]", "result": -0.776},
      {"measurement": "glycan array binding signal (z-score)", "setting": "[15]", "result": -0.618},
      {"measurement": "glycan array binding signal (z-score)", "setting": "[16]", "result": 0.899},
      {"measurement": "glycan array binding signal (z-score)", "setting": "[17]", "result": 0.513},
      {"measurement": "glycan array binding signal (z-score)", "setting": "[18]", "result": 2.61},
      {"measurement": "glycan array binding signal (z-score)", "setting": "[19]", "result": -0.369},
      {"measurement": "glycan array binding signal (z-score)", "setting": "[20]", "result": 0.168},
      {"measurement": "glycan array binding signal (z-score)", "setting": "[21]", "result": 0.795},
      {"measurement": "glycan array binding signal (z-score)", "setting": "[22]", "result": -0.218},
      {"measurement": "glycan array binding signal (z-score)", "setting": "[23]", "result": 1.01}
    ]}
  ]
}
